For three molecules, binding results are on record in paper PMC12700831.

The chains behind the UniProt entries cited, without tags or fusion partners.
UniProt Q5TEA3: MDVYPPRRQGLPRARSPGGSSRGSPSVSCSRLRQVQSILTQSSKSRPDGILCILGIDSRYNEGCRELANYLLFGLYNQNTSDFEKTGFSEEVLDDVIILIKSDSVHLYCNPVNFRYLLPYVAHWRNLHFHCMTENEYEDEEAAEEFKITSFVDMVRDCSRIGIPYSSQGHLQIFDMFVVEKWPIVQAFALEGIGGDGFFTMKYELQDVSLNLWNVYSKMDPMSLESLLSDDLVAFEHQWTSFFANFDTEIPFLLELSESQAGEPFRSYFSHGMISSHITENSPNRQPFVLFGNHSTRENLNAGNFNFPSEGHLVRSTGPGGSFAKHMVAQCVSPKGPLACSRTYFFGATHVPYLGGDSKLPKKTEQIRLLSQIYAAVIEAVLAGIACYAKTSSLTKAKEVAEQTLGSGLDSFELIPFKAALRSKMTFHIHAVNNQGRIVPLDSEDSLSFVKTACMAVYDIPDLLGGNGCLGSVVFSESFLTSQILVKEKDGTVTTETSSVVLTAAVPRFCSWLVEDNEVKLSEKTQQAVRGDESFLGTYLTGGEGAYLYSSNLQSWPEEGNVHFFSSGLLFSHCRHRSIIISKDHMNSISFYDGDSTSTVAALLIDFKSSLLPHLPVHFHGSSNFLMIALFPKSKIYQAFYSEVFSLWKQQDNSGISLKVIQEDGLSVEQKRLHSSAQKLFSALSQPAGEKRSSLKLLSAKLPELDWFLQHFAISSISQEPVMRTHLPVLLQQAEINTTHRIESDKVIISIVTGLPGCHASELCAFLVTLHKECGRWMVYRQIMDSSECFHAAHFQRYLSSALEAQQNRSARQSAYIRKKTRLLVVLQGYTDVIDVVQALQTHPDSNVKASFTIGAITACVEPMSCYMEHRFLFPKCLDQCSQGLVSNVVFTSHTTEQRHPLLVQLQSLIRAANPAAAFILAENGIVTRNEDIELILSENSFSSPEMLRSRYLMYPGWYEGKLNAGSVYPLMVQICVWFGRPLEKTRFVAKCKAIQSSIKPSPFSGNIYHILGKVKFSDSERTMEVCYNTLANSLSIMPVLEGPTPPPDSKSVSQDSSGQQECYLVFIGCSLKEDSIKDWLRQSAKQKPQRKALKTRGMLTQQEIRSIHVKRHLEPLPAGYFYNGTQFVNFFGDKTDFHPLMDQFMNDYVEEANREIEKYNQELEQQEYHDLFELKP

This experiment concerns the target DNAAF9 (endogenous, human airway epithelial cells) (human (endogenous in HAECs)) (UniProt Q5TEA3). Description: co-IP; endogenous DNAAF9 immunoprecipitated from HAEC (EC) lysates, western blot of the immunoprecipitates.

Results are given in words; binding and its absence hold for the method and conditions named. Binding seen in cells or lysates may run through a third protein. Some results given as binding are weak or reduced against the parent protein; the word gives no strength.

B1: IFT74 (endogenous, human airway epithelial cells) (protein, UniProt Q96LB3 1-600)
chain: MASNHKSSAARPVSRGGVGLTGRPPSGIRPLSGNIRVATAMPPGTARPGSRGCPIGTGGVLSSQIKVAHRPVTQQGLTGMKTGTKGPQRQILDKSYYLGLLRSKISELTTEVNKLQKGIEMYNQENSVYLSYEKRAETLAVEIKELQGQLADYNMLVDKLNTNTEMEEVMNDYNMLKAQNDRETQSLDVIFTERQAKEKQIRSVEEEIEQEKQATDDIIKNMSFENQVKYLEMKTTNEKLLQELDTLQQQLDSQNMKKESLEAEIAHSQVKQEAVLLHEKLYELESHRDQMIAEDKSIGSPMEEREKLLKQIKDDNQEIASMERQLTDTKEKINQFIEEIRQLDMDLEEHQGEMNQKYKELKKREEHMDTFIETFEETKNQELKRKAQIEANIVALLEHCSRNINRIEQISSITNQELKMMQDDLNFKSTEVQKSQSTAQNLTSDIQRLQLDLQKMELLESKMTEEQHSLKSKIKQMTTDLEIYNDLPALKSSGEEKIKKLHQERMILSTHRNAFKKIMEKQNIEYEALKTQLQENETHSQLTNLERKWQHLEQNNFAMKEFIATKSQESDYQPIKKNVTKQIAEYNKTIVDALHSTSGN
With B1, the binding entry is on record as “binds”.

B2: DNAI2 (protein, UniProt Q9GZS0 1-605)
chain: MEIVYVYVKKRSEFGKQCNFSDRQAELNIDIMPNPELAEQFVERNPVDTGIQCSISMSEHEANSERFEMETRGVNHVEGGWPKDVNPLELEQTIRFRKKVEKDENYVNAIMQLGSIMEHCIKQNNAIDIYEEYFNDEEAMEVMEEDPSAKTINVFRDPQEIKRAATHLSWHPDGNRKLAVAYSCLDFQRAPVGMSSDSYIWDLENPNKPELALKPSSPLVTLEFNPKDSHVLLGGCYNGQIACWDTRKGSLVAELSTIESSHRDPVYGTIWLQSKTGTECFSASTDGQVMWWDIRKMSEPTEVVILDITKKEQLENALGAISLEFESTLPTKFMVGTEQGIVISCNRKAKTSAEKIVCTFPGHHGPIYALQRNPFYPKNFLTVGDWTARIWSEDSRESSIMWTKYHMAYLTDAAWSPVRPTVFFTTRMDGTLDIWDFMFEQCDPTLSLKVCDEALFCLRVQDNGCLIACGSQLGTTTLLEVSPGLSTLQRNEKNVASSMFERETRREKILEARHREMRLKEKGKAEGRDEEQTDEELAVDLEALVSKAEEEFFDIIFAELKKKEADAIKLTPVPQQPSPEEDQVVEEGEEAAGEEGDEEVEEDLA
Take B2: the binding entry is “binds”.

B3: IFT81 (endogenous, human airway epithelial cells) (protein, UniProt Q8WYA0 1-676)
chain: MSDQIKFIMDSLNKEPFRKNYNLITFDSLEPMQLLQVLSDVLAEIDPKQLVDIREEMPEQTAKRMLSLLGILKYKPSGNATDMSTFRQGLVIGSKPVIYPVLHWLLQRTNELKKRAYLARFLIKLEVPSEFLQDETVADTNKQYEELMEAFKTLHKEYEQLKISGFSTAEIRKDISAMEEEKDQLIKRVEHLKKRVETAQNHQWMLKIARQLRVEKEREEYLAQQKQEQKNQLFHAVQRLQRVQNQLKSMRQAAADAKPESLMKRLEEEIKFNLYMVTEKFPKELENKKKELHFLQKVVSEPAMGHSDLLELESKINEINTEINQLIEKKMMRNEPIEGKLSLYRQQASIISRKKEAKAEELQEAKEKLASLEREASVKRNQTREFDGTEVLKGDEFKRYVNKLRSKSTVFKKKHQIIAELKAEFGLLQRTEELLKQRHENIQQQLQTMEEKKGISGYSYTQEELERVSALKSEVDEMKGRTLDDMSEMVKKLYSLVSEKKSALASVIKELRQLRQKYQELTQECDEKKSQYDSCAAGLESNRSKLEQEVRRLREECLQEESRYHYTNCMIKNLEVQLRRATDEMKAYISSDQQEKRKAIREQYTKNTAEQENLGKKLREKQKVIRESHGPNMKQAKMWRDLEQLMECKKQCFLKQQSQTSIGQVIQEGGEDRLIL
As to B3, the binding entry is recorded as “binds”.
